Measured values published in US20190101529.
For some assays here: A negative result means that nothing was seen under these conditions. For some assays here: For at least one entry, the source does not settle the construct or the ends of the probe.

Protein sequences, listed by entry. Tags and fused reporters are not part of them. Lines headed by an entry give the natural chain unless they say otherwise; changes in a name come on top. Residues count along the entry.
UniProt P04271, 2-92: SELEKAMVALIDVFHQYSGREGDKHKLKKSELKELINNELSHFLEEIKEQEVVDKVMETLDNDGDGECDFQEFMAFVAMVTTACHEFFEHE
UniProt P10636: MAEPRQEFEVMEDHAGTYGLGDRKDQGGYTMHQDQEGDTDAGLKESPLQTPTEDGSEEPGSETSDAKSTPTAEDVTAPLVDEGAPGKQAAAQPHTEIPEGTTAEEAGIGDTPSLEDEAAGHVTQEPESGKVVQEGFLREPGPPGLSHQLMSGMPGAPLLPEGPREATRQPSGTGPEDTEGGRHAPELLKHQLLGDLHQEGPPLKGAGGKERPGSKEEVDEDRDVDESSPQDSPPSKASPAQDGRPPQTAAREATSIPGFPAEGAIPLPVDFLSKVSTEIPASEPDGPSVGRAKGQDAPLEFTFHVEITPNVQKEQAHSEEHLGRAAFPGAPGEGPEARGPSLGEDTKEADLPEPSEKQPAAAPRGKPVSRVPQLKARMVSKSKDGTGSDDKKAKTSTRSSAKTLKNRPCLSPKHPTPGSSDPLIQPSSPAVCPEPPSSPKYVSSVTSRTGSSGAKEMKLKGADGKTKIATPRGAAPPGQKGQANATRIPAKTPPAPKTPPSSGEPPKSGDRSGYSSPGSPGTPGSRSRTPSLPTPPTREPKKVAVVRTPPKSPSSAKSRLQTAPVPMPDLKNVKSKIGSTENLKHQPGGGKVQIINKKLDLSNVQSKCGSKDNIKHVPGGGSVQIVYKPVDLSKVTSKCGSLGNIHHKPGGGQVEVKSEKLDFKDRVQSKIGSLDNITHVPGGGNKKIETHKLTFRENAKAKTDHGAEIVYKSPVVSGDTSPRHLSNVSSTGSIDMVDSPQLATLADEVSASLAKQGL

What was measured:
Tau S202P phosphopeptide = assay: flow cytometry; conditions: binds S202 but not S202P; synthetic protein; label: 5'-FAM (flow); single-stranded DNA
IgG = assay: EMSA; conditions: 200 nM aptamer, 0.05 mg/mL protein, 4 C; label: 5'-FAM (flow); single-stranded DNA
S100B = S100B (UniProt P04271); assay: EMSA; conditions: 200 nM aptamer, 0.05 mg/mL protein, 4 C; label: 5'-FAM (flow); single-stranded DNA
Tau T231P phosphopeptide = Tau T231P phosphopeptide (UniProt P10636); assay: flow cytometry; conditions: specific to T231; 4 C, 250 nM; synthetic protein; label: 5'-FAM (flow); single-stranded DNA
[1] = tested on: Tau441 (microtubule-associated protein tau, 2N4R); assay: inhibition of the protein; conditions: 5-20 uM IT3 reduces heparin-induced oligomerization of 10 uM Tau441; random sequence inactive; purified recombinant protein; label: 5'-FAM (flow); single-stranded DNA
[2] = tested on: Tau (endogenous, SH-SY5Y cells) (Homo sapiens); assay: activity in cells; conditions: 20 uM, reduces okadaic acid-induced tau oligomers in SH-SY5Y, protein in cells, single-stranded DNA

Sequence	binding result (IgG)	binding result (S100B)	binding result (Tau T231P phosphopeptide)	other results
CAGCACCGTCAACTGAATAAGGACTGCTTAGGATTGCGATGATTCAGGGTGATGCGATGGAGATGT [IT2]	–	–	–	binding result (Tau S202P phosphopeptide): no binding
CAGCACCGTCAACTGAATGGCGGGGGGTCAGGTCGGGGTAAGGTGAGCGTGATGCGATGGAGATGT [IT5]	no binding	no binding	no binding	–
CAGCACCGTCAACTGAATGGGGAGAGTGGTGGGGCGGGGGCCGGATCCGTGATGCGATGGAGATGT [IT3]	no binding	no binding	–	functional effect of the aptamer [1]: active
CAGCACCGTCAACTGAATGGGTTGGCCGGGCAGCGGGGGGTAGGCTTGGTGATGCGATGGAGATGT [IT4]	no binding	no binding	no binding	–
CAGCACCGTCAACTGAATGTTGTCGTCAGAGGTTATAACCTGAACTCGGTGATGCGATGGAGATGT [IT6]	–	–	no binding	–
CAGCACCGTCAACTGAATTGCGGGGGGTCAGGTCGGGGTAAGGTGAGCGTGATGCGATGGAGATGT [IT9]	no binding	no binding	no binding	–
CAGCACCGTCAACTGAATTGCTTGGTCCTCCCGGGGTTCTGGAAAAGCGTGATGCGATGGAGATGT [IT1]	–	–	no binding	–
CTGAATAAGGACTGCTTAGGATTGCGATGATTCAG [IT2a]	–	–	–	functional effect of the aptamer ([2]; variant of IT2): active
GCTTGGTCCTCCCGGGGTTCTGGAAAAGC [IT1c]	–	–	–	functional effect of the aptamer ([2]; variant of IT1): active
